# From PubChem BioAssay AID445 (National Center for Advancing Translational Sciences (NCATS), 2006)
# This is one part of the list. Further columns of the screen follow, without active or inactive calls. Compounds called inactive in the main read-out are mostly missing here. The note in brackets gives the kind of curve behind each potency; many fits are weak.
# Test: IkB Signaling
# Conditions: ABC-DLBCL IkBa-CBG/CBR dual luciferase ratio (green luciferase fused to IkBa over red control in OCI-Ly3 lymphoma cells), 4 h
# Method in brief: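 In this assay, an IκBα–CBG68 fusion accumulates when IKK-driven degradation is blocked; native CBR normalizes for cell number. OCI-Ly3 cells were treated 4 h with compound and doxycycline, then green and red light read after Chroma-Glo addition.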
# [1] = measured here: control luc red channel unless noted
# [2] = measured here: IkB-luc green channel
# [3] = measured here: control luc red channel
compound,measurement,setting,value
CCc1ccccc1NS(=O)(=O)c1ccc2[nH]cc(C(=O)N(CC(C)C)CC(C)C)c(=O)c2c1,AC50,[1],"20 µM [falling, partial curve]"
O=C(COC(=O)c1cncc(Br)c1)NCc1ccco1,AC50,[1],"25.1 µM [rising, single point] [measured here: IkB-luc green channel]"
COc1ccc(OC)c(C(=O)CC2(O)C(=O)N(Cc3ccccc3C)c3ccccc32)c1 (stereo not drawn),AC50,[1],"39.8 µM [falling, single point]"
CCOc1ccccc1CNC(=O)CCc1c(C)nn(-c2ccc(N3CCCC3)nn2)c1C,AC50,[1],"10 µM [falling, single point]"
Cc1ccc(S(=O)(=O)C2(C(=O)Nc3ccc(Cl)c(C(F)(F)F)c3)CC2)cc1,AC50,[1],"10 µM [falling, partial curve]"
Cc1ccc(/C=C(\C#N)c2nc(-c3ccc(-c4ccccc4)cc3)cs2)cc1,AC50,[1],"0.631 µM [falling, full curve]"
COC(=O)c1ccc(Cl)cc1NC(=O)NCCc1c(C)nn(C)c1C,AC50,[1],"10 µM [falling, partial curve]"
COc1ccccc1CNC(=O)Cn1c(=O)nc(-c2ccccc2F)c2cc(Cl)ccc21,AC50,[1],"25.1 µM [falling, partial curve]"
Cc1ccc(-n2c(=O)c3cccnc3n2CC(=O)Nc2cc(C)cc(C)c2)cc1,AC50,[1],"20 µM [falling, single point]"
Clc1ccccc1-c1nnc2sc(-c3ccc4c(c3)OCO4)nn12,AC50,[1],"10 µM [falling, partial curve]"
COc1ccc(-n2ccnc2SCC(=O)Nc2ccc3c(c2)OCO3)cc1,AC50,[1],"0.0794 µM [falling, partial curve, poor fit]"
CCCC(c1nnnn1Cc1cccs1)N1CCN(c2nc3ccccc3s2)CC1 (stereo not drawn),AC50,[1],"12.6 µM [falling, partial curve]"
Cc1cccc(N2CCN(C(=O)CCn3c(=S)[nH]c4cc5c(cc4c3=O)OCO5)CC2C)c1 (stereo not drawn),AC50,[1],"5.01 µM [falling, full curve]"
Cc1ccc(Cl)cc1N1CCN(C(=O)C2CCC(CNS(=O)(=O)c3cccs3)CC2)CC1 (stereo not drawn),AC50,[1],"10 µM [falling, partial curve]"
CCOC(=O)c1c(C)[nH]c(C)c1S(=O)(=O)N1CCC(C(=O)Nc2cc(C)ccn2)CC1,AC50,[1],"25.1 µM [falling, partial curve]"
COc1cccc(C(=O)N2CCC(C(=O)Nc3cccc(Cl)c3)CC2)c1,AC50,[1],"12.6 µM [falling, partial curve]"
COc1cc(C(=O)Nc2ccc(NC(=O)c3ccc(C(C)(C)C)cc3)cc2)cc(OC)c1OC,AC50,[1],"7.94 µM [falling, full curve]"
NC(=O)c1ccccc1-c1nc(-c2ccccc2)no1,AC50,[1],"12.6 µM [falling, partial curve]"
COc1ccccc1C(=O)Nc1ccc2nc(SCCOc3ccccc3C)sc2c1,AC50,[1],"1 µM [falling, full curve, poor fit]"
N#C/C(=C\c1ccc(O)c(O)c1)C(=O)NCCCCc1ccccc1,AC50,[1],"31.6 µM [falling, partial curve]"
COc1ccc2c(c1)c(=O)oc1cc(OCC(=O)N3CCCC(C)C3)ccc12 (stereo not drawn),AC50,[1],"31.6 µM [falling, single point]"
COc1cccc(C(=O)Nc2nc3nc(-c4ccccc4)cc(=O)n3[nH]2)c1,AC50,[1],"20 µM [falling, single point]"
O=C(Cn1c(=O)nc(-c2ccccc2)c2ccccc21)NCCc1ccccc1,AC50,[1],"39.8 µM [falling, single point]"
Cc1cc(-c2ccccc2)n2nc(-c3ccccc3)cc2n1,AC50,[1],"20 µM [falling, partial curve]"
Cc1ccc2cc(C(c3nnnn3Cc3ccccc3)N3CCN(c4ccccc4)CC3)c(=O)[nH]c2c1 (stereo not drawn),AC50,[1],"10 µM [falling, partial curve]"
Cc1c(C(=O)O)oc2c1-c1nn(Cc3ccc(Cl)cc3)cc1CC2,AC50,[1],"10 µM [falling, partial curve]"
CCOc1ccc(C(c2c(O)cc(C)n(Cc3ccco3)c2=O)N2CCCCC2)cc1 (stereo not drawn),AC50,[1],"31.6 µM [falling, partial curve, poor fit]"
Cc1cc(Cl)ccc1OCC(=O)N1CCC(c2nc3ccccc3s2)CC1,AC50,[1],"39.8 µM [falling, single point]"
Cc1ccn2c(Nc3ccc(C(C)C)cc3)c(-c3cccnc3)nc2c1,AC50,[1],"25.1 µM [falling, partial curve]"
Cc1cccc2cc(CN(CCCO)C(=O)Nc3cccc(Cl)c3)c(=O)[nH]c12,AC50,[1],"12.6 µM [falling, partial curve]"
Cc1cccc(C(=O)Nc2ccc3nc(SCCOc4ccccc4)sc3c2)c1,AC50,[1],"0.0794 µM [falling, full curve, poor fit]"
COc1ccc(C2C=C(c3ccccc3)Nc3nc(NC(=O)/C=C/c4ccccc4Cl)nn32)cc1 (stereo not drawn),AC50,[1],"5.01 µM [rising, partial curve]"
CCc1cnc2c(c1SCC(=O)NCc1ccc(F)cc1)c(=O)n(C)c(=O)n2C,AC50,[2],"7.94 µM [rising, full curve]"
same,AC50,[3],"5.01 µM [rising, full curve, poor fit]"
Nc1ncc(S(=O)(=O)Nc2ccc(F)cc2F)cn1,AC50,[1],"25.1 µM [falling, single point]"
COc1ccc(Cl)cc1NC(=O)Cn1c(=O)c(-c2ccccc2NC(C)=O)nc2ccccc21,AC50,[1],"0.158 µM [rising, full curve]"
CCOC(=O)c1c(NC(=O)COc2cccc(C)c2C)sc(C(C)=O)c1C,AC50,[1],"0.501 µM [falling, full curve, poor fit]"
OC(COc1ccc(Cl)cc1)CN1CCCCC1 (stereo not drawn),AC50,[1],"12.6 µM [rising, partial curve]"
COC(=O)c1ccccc1NC(=O)Cn1c(=O)cc(C)c2c(C)nn(C)c21,AC50,[1],"3.16 µM [falling, partial curve]"
Cc1ccc(Cn2nnc3c(=O)[nH]c(C4CCN(S(=O)(=O)c5ccc(C)cc5)CC4)nc32)cc1,AC50,[2],"25.1 µM [falling, single point]"
same,AC50,[3],"25.1 µM [falling, single point]"
Cc1ccc(C)c(Cn2c(C(=O)O)c(CNCc3cccs3)c3ccccc32)c1,AC50,[1],"39.8 µM [falling, single point]"
CC(=O)Nc1c(C)nn(-c2ccccc2)c1N1CCC(C(=O)NCc2ccccc2Cl)CC1,AC50,[1],"0.0398 µM [falling, full curve, poor fit]"
CN(C)S(=O)(=O)c1ccc2c(c1)/C(=C/c1cc3c([nH]1)CCCC3)C(=O)N2,AC50,[1],"15.8 µM [falling, partial curve, poor fit] [measured here: IkB-luc green channel]"
COc1ccc(CCN2C(=O)c3[nH]nc(-c4ccccc4O)c3C2c2ccc(OC)c(OC)c2)cc1 (stereo not drawn),AC50,[1],"15.8 µM [falling, partial curve]"
CC(c1ccco1)N(C(=O)CSc1ccc(Br)cc1)c1ccccn1 (stereo not drawn),AC50,[1],"25.1 µM [falling, single point]"
O=C(COc1ccccc1Cl)Nc1ccc2nc(SCC(=O)N3CCCC3)sc2c1,AC50,[1],"15.8 µM [falling, partial curve]"
COc1ccc(-c2cc(-c3ccccc3)nc(SCC(=O)Nc3ccccc3F)c2C#N)cc1,AC50,[1],"20 µM [rising, partial curve]"
CCOC(=O)C1=C(CS(=O)(=O)c2ccc(OC)c(Cl)c2)NC(=O)NC1c1cccc(OC)c1 (stereo not drawn),AC50,[1],"0.316 µM [falling, full curve, poor fit]"
N#C/C(=C(/O)COC(=O)CCc1ccc(S(=O)(=O)N2CCOCC2)cc1)c1nc2ccccc2[nH]1,AC50,[2],"25.1 µM [rising, partial curve]"
same,AC50,[3],"6.31 µM [falling, partial curve]"
O=C(CCCc1ccccc1)NC1CC(=O)N(c2ccc(F)cc2)C1 (stereo not drawn),AC50,[1],"6.31 µM [rising, single point]"
CCc1cccc(NC(=O)c2ccc(NC(=O)N3CCSc4ncccc43)cc2)c1,AC50,[1],"25.1 µM [falling, partial curve]"
Cc1ccc(S(=O)(=O)Nc2cc3c(cc2N2CCOCC2)n(C)c(=O)n3C)cc1,AC50,[1],"10 µM [rising, partial curve]"
Cc1ccc(NC(=O)N2CCN(c3cc(-c4noc(C)n4)ccc3C)CC2)c(F)c1,AC50,[1],"25.1 µM [falling, single point]"
Cn1c(NCc2ccco2)nc2ccccc21,AC50,[1],"10 µM [falling, partial curve]"
COC(=O)c1cc(C)nc2c1c(=O)nc(SCc1ccccc1C)n2C1CC1,AC50,[1],"15.8 µM [falling, single point]"
Cc1ccc(C(=O)NCC(c2ccc3c(c2)OCO3)N2CCOCC2)cc1 (stereo not drawn),AC50,[1],"10 µM [rising, partial curve]"
Cc1ccc(Cl)cc1NC(=O)Nc1cccc(OCc2cc(=O)n3ccccc3n2)c1,AC50,[1],"0.501 µM [falling, single point]"
COc1ccc(N2CCN(C(=O)C3CCCN(S(=O)(=O)c4cccc5cccnc45)C3)CC2)cc1 (stereo not drawn),AC50,[1],"10 µM [falling, partial curve]"
COc1ccc(-n2c(-c3ccco3)nc3c(cnn3-c3ccccc3Cl)c2=O)cc1,AC50,[1],"31.6 µM [falling, single point]"
COc1ccc(OC)c(C2=NS(=O)(=O)N(C)C(C(=O)Nc3ccc(F)cc3F)=C2)c1,AC50,[1],"25.1 µM [falling, single point]"
O=C(CSc1cn(CC(=O)N2CCCCC2)c2ccccc12)Nc1ccccc1,AC50,[1],"0.398 µM [rising, full curve, poor fit]"

# 3 records drawn at random from the list so far:
compound,measurement,setting,value
CCc1cnc2c(c1SCC(=O)NCc1ccc(F)cc1)c(=O)n(C)c(=O)n2C,AC50,[2],"7.94 µM [rising, full curve]"
CCOc1ccc(C(c2c(O)cc(C)n(Cc3ccco3)c2=O)N2CCCCC2)cc1 (stereo not drawn),AC50,[1],"31.6 µM [falling, partial curve, poor fit]"
COc1ccc(-c2cc(-c3ccccc3)nc(SCC(=O)Nc3ccccc3F)c2C#N)cc1,AC50,[1],"20 µM [rising, partial curve]"

# Shown with tabs: part of the list above.
compound	measurement	setting	value
Cc1ccc(S(=O)(=O)C2(C(=O)Nc3ccc(Cl)c(C(F)(F)F)c3)CC2)cc1	AC50	[1]	10 µM [falling, partial curve]
COc1ccc(C2C=C(c3ccccc3)Nc3nc(NC(=O)/C=C/c4ccccc4Cl)nn32)cc1 (stereo not drawn)	AC50	[1]	5.01 µM [rising, partial curve]
